This is an account of results in doi:10.1101/2024.12.04.626816.

Sequences of proteins named here, by UniProt entry; tags and fusion partners are left off.
UniProt Q92793: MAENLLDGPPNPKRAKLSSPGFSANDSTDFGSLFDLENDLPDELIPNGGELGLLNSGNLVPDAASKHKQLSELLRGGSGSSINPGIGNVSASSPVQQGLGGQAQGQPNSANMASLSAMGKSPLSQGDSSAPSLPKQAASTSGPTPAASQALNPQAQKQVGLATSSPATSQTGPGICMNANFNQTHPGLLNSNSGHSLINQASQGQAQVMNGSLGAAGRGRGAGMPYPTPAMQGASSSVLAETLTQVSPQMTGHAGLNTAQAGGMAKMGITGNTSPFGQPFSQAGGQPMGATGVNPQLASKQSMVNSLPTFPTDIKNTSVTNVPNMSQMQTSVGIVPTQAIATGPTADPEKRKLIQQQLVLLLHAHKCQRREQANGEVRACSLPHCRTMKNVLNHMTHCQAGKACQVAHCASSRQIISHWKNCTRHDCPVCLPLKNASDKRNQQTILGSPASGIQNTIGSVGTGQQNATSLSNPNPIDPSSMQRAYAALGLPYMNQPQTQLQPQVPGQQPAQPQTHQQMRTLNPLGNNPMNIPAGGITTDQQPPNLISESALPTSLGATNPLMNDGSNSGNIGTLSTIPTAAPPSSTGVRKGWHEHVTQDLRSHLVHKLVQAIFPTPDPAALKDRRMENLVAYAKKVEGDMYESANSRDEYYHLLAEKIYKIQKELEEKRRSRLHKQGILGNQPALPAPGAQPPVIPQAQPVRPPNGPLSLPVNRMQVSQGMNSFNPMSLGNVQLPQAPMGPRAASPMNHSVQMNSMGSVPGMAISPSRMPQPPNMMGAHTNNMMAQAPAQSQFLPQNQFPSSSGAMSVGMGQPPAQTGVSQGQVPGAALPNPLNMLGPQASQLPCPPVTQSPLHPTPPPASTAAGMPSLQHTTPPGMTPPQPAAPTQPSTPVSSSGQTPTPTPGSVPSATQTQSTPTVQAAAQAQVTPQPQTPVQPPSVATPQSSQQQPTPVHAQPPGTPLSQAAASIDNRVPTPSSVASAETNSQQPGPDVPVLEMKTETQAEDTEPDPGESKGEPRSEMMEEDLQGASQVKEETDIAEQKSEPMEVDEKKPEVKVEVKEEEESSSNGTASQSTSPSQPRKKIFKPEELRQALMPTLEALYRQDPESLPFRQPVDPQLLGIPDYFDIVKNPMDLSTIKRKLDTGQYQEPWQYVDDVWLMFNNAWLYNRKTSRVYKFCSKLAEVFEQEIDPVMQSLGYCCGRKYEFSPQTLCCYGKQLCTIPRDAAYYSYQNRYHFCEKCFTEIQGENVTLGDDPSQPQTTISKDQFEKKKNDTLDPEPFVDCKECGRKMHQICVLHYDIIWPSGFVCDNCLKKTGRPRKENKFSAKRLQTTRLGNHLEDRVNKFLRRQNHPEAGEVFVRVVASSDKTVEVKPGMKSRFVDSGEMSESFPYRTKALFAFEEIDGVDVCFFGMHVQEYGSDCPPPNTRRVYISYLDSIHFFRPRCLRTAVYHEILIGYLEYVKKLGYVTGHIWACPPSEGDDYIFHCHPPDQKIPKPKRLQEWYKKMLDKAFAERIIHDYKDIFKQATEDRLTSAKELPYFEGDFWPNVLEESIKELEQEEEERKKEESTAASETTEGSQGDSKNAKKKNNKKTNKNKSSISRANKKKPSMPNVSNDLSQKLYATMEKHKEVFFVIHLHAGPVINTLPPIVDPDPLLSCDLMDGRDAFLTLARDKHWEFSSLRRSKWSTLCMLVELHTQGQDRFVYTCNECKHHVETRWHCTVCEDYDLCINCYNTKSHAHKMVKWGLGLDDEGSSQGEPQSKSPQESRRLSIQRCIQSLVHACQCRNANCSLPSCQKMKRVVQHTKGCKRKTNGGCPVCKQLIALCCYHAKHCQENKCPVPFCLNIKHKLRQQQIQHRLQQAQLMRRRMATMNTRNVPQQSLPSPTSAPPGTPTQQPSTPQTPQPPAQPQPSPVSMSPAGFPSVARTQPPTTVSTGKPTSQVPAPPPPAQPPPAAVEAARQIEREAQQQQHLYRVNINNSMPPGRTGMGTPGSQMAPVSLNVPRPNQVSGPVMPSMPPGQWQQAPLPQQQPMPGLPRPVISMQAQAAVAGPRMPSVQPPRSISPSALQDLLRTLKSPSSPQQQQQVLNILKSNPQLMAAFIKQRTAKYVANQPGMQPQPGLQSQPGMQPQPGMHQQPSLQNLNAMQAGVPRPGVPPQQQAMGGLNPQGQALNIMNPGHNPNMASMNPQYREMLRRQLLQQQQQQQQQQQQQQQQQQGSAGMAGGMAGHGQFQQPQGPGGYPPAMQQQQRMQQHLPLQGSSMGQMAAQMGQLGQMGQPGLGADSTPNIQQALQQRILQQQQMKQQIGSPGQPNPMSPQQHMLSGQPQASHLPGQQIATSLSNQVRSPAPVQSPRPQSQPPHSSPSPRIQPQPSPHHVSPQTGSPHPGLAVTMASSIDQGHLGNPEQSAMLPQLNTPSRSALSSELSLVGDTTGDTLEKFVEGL

Test in all cases: co-IP
Assay [1] addresses T1, FOXA2 (lentiviral, in LuNE cells) (human) (UniProt Q9Y261).
T1 sequence: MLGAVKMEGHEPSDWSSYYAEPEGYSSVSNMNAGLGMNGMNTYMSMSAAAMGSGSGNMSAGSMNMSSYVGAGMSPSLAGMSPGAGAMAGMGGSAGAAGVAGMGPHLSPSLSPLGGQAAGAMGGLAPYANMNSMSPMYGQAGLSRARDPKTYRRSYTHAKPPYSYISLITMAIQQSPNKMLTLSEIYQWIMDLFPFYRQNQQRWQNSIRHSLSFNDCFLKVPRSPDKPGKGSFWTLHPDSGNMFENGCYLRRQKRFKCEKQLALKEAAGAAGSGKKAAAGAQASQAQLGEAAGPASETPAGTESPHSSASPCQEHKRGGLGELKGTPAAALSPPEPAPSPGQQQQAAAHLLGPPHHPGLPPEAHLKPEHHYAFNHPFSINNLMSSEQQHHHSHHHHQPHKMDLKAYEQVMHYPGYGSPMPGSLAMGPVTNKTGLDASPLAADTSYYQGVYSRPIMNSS

The target of assay [2] is T2, NKX2-1 (human (endogenous in NCI-H660 and LuNE)) (UniProt P43699).
T2 sequence: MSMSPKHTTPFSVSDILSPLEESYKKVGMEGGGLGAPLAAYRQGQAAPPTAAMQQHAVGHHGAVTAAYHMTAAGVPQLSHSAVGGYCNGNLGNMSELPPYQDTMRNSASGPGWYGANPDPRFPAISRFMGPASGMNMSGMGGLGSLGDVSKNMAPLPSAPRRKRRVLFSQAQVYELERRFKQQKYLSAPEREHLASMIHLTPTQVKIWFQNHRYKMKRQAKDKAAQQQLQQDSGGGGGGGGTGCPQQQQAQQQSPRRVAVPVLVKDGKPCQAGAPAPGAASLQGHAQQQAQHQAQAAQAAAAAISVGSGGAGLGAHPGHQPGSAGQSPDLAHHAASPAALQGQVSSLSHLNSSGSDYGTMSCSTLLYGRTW

The target in assay [3] is T3, FOXA2 (endogenous, NCI-H660) (human (endogenous in NCI-H660)), Q9Y261.
T3 chain: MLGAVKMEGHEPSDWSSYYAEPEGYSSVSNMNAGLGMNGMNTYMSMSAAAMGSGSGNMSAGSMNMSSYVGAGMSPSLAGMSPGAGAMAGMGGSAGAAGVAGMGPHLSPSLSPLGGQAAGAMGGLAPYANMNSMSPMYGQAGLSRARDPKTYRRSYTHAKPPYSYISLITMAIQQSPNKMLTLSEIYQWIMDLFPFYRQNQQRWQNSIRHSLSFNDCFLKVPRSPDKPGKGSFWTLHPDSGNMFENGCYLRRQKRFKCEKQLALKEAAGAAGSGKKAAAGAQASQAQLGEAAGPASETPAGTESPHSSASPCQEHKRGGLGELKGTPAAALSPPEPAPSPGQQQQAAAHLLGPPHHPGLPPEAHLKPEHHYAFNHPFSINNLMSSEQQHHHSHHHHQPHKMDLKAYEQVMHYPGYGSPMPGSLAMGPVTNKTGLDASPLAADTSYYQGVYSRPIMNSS
To be noted: remark: other sources report otherwise.

Assay [4] has as its target T4, NKX2-1 (human (endogenous in NCI-H660 and LuNE)), P43699.
T4 chain: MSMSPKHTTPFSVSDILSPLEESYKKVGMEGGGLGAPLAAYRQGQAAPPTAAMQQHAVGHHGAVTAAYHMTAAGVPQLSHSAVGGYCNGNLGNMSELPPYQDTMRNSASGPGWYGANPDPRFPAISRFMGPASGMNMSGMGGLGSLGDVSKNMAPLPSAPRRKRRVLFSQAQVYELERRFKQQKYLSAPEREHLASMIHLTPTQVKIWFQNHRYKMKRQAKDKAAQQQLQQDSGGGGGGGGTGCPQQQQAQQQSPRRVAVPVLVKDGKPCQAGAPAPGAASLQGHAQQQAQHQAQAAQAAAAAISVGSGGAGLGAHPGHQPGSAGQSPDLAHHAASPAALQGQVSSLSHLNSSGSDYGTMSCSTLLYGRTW
To be noted: remark: other sources report otherwise.

Results are given in words; binding and its absence hold for the method and conditions named. In cells and extracts the contact can be indirect. Some binding calls cover weakened binding; strength is not graded here.

For the molecule “CREBBP (CBP) (from UniProt Q92793 1-2442) (enzyme)”, the binding entry in assay [1] and in assay [2] was “binds” in each case.

B1: NKX2-1, P43699 1-371 (protein)
chain: MSMSPKHTTPFSVSDILSPLEESYKKVGMEGGGLGAPLAAYRQGQAAPPTAAMQQHAVGHHGAVTAAYHMTAAGVPQLSHSAVGGYCNGNLGNMSELPPYQDTMRNSASGPGWYGANPDPRFPAISRFMGPASGMNMSGMGGLGSLGDVSKNMAPLPSAPRRKRRVLFSQAQVYELERRFKQQKYLSAPEREHLASMIHLTPTQVKIWFQNHRYKMKRQAKDKAAQQQLQQDSGGGGGGGGTGCPQQQQAQQQSPRRVAVPVLVKDGKPCQAGAPAPGAASLQGHAQQQAQHQAQAAQAAAAAISVGSGGAGLGAHPGHQPGSAGQSPDLAHHAASPAALQGQVSSLSHLNSSGSDYGTMSCSTLLYGRTW
On to B1, for which the binding entry in assay [3] is recorded as “binds”.

B2: FOXA2 (endogenous, NCI-H660), Q9Y261 1-457 (protein)
chain: MLGAVKMEGHEPSDWSSYYAEPEGYSSVSNMNAGLGMNGMNTYMSMSAAAMGSGSGNMSAGSMNMSSYVGAGMSPSLAGMSPGAGAMAGMGGSAGAAGVAGMGPHLSPSLSPLGGQAAGAMGGLAPYANMNSMSPMYGQAGLSRARDPKTYRRSYTHAKPPYSYISLITMAIQQSPNKMLTLSEIYQWIMDLFPFYRQNQQRWQNSIRHSLSFNDCFLKVPRSPDKPGKGSFWTLHPDSGNMFENGCYLRRQKRFKCEKQLALKEAAGAAGSGKKAAAGAQASQAQLGEAAGPASETPAGTESPHSSASPCQEHKRGGLGELKGTPAAALSPPEPAPSPGQQQQAAAHLLGPPHHPGLPPEAHLKPEHHYAFNHPFSINNLMSSEQQHHHSHHHHQPHKMDLKAYEQVMHYPGYGSPMPGSLAMGPVTNKTGLDASPLAADTSYYQGVYSRPIMNSS
For B2, in assay [4], the binding entry is “binds”.
